Assay results published in the supplement of paper PMC7666118.
Some of the results follow.

Protein sequences, listed by entry. Tags and fused reporters are not part of them. Lines headed by an entry give the natural chain unless they say otherwise; changes in a name come on top.
UniProt O94927: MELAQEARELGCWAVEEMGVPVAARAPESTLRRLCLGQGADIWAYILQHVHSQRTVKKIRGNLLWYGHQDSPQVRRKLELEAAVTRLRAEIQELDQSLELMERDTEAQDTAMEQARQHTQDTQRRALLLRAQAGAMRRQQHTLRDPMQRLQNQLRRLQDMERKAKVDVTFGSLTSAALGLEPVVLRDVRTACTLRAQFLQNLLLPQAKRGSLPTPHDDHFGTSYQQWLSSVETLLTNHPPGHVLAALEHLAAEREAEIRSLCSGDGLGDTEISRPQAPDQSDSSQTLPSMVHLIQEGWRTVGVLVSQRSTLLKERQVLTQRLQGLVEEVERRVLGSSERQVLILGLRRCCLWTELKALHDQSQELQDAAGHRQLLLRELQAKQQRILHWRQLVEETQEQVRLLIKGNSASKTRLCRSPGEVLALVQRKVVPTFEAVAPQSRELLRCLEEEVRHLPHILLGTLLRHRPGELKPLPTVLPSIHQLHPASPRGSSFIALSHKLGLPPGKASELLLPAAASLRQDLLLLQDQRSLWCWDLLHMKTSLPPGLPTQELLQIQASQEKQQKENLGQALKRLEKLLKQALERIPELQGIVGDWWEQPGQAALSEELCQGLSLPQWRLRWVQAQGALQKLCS
UniProt O60333: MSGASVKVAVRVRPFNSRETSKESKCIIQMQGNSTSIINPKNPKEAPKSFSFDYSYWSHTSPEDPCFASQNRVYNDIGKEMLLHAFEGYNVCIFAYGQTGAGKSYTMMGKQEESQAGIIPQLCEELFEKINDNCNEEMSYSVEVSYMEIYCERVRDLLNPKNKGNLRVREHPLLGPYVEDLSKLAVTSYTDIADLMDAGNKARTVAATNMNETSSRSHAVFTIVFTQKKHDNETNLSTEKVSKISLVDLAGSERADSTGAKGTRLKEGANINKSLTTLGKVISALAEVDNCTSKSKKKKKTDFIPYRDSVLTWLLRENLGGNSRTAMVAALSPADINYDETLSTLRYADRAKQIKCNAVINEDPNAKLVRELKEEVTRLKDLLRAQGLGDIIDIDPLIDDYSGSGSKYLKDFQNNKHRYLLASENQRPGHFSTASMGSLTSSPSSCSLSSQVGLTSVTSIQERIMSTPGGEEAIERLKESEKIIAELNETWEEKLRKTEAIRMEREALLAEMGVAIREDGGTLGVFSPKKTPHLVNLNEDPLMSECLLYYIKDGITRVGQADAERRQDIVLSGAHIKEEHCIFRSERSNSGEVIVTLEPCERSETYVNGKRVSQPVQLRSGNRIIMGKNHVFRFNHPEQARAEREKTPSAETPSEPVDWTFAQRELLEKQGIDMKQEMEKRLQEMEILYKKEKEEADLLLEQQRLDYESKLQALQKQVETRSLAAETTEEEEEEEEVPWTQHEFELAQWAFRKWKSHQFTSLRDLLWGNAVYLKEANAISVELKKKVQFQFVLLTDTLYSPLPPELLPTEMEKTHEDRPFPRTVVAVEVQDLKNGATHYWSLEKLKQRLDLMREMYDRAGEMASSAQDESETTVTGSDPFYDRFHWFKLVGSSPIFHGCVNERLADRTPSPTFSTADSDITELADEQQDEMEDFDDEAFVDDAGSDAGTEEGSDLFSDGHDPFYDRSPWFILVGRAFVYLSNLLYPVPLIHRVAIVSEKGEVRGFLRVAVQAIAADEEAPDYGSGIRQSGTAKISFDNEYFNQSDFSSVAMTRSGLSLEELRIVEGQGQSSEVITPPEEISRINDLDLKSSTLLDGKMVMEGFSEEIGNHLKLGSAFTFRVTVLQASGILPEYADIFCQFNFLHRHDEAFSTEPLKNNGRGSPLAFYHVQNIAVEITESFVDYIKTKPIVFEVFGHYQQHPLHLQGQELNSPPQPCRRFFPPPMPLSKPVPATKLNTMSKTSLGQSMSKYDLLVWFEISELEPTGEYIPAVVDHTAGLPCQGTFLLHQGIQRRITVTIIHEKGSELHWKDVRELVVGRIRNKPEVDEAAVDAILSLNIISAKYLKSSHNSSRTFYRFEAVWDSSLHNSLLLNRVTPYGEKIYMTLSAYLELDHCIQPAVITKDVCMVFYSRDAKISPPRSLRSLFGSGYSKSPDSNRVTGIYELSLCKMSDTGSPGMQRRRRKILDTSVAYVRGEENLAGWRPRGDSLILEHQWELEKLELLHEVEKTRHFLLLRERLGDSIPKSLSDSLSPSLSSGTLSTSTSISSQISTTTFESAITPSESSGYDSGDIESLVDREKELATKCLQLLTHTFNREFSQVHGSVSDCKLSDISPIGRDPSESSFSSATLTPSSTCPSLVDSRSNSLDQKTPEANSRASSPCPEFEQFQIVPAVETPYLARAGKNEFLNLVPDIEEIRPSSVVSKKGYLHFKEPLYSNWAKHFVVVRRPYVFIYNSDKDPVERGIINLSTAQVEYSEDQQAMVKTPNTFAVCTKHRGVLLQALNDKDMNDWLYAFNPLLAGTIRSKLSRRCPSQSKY
UniProt Q9P260: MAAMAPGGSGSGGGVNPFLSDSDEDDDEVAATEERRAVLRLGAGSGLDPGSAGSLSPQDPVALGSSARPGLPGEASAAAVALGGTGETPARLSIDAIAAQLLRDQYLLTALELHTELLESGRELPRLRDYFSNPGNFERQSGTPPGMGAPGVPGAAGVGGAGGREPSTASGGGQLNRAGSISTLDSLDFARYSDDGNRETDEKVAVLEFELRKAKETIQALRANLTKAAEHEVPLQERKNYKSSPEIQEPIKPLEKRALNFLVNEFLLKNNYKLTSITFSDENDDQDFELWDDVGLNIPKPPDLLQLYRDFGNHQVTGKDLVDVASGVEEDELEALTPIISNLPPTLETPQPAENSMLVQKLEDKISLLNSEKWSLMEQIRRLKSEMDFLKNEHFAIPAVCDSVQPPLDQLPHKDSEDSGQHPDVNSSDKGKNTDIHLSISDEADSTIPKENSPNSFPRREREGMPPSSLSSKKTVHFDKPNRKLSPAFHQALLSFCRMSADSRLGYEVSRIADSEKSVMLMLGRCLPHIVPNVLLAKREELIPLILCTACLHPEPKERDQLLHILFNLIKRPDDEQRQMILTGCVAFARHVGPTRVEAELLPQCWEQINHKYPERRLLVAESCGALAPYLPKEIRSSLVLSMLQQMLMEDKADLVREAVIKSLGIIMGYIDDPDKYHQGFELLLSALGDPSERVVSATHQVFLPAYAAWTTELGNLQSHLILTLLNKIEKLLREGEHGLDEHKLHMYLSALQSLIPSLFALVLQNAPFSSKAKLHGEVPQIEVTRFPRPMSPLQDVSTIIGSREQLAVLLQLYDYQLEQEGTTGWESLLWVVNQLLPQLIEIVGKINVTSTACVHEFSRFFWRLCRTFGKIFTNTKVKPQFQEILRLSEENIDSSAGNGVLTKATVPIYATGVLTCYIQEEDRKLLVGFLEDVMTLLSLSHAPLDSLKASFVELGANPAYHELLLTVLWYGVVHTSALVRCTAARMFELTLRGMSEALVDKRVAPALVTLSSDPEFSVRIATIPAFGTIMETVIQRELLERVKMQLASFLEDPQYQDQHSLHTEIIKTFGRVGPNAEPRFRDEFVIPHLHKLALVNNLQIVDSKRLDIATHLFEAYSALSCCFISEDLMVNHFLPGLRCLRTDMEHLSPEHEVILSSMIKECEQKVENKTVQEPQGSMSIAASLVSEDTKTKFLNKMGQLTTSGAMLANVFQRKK
UniProt Q14116, whole entry: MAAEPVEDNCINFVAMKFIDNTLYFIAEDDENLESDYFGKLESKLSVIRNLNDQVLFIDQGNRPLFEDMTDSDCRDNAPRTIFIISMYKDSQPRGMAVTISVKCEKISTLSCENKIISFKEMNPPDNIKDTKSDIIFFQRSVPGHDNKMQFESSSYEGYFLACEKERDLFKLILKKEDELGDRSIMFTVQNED
UniProt Q9P2N6: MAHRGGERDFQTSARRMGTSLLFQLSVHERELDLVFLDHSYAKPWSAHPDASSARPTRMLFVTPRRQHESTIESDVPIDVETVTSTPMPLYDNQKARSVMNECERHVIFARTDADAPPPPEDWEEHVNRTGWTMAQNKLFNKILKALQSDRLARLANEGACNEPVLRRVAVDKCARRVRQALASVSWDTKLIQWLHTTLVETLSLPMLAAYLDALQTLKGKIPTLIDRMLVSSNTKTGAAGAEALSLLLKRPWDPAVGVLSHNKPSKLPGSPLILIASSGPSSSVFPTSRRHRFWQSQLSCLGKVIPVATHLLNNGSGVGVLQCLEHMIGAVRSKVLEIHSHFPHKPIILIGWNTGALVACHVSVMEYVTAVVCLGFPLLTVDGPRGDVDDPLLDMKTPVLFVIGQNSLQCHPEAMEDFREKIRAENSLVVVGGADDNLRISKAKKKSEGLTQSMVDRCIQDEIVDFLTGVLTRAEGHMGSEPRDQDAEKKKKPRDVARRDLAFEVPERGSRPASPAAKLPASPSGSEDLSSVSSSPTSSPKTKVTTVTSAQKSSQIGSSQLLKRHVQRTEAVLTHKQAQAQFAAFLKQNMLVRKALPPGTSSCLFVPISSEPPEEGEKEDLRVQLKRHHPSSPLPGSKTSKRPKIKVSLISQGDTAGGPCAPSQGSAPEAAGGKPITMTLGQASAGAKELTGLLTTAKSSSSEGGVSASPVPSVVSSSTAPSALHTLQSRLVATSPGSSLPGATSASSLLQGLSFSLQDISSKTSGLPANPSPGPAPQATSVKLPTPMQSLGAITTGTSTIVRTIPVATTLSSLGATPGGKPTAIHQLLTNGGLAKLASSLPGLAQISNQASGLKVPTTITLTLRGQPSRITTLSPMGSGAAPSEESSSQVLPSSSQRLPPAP
UniProt P14735, whole entry: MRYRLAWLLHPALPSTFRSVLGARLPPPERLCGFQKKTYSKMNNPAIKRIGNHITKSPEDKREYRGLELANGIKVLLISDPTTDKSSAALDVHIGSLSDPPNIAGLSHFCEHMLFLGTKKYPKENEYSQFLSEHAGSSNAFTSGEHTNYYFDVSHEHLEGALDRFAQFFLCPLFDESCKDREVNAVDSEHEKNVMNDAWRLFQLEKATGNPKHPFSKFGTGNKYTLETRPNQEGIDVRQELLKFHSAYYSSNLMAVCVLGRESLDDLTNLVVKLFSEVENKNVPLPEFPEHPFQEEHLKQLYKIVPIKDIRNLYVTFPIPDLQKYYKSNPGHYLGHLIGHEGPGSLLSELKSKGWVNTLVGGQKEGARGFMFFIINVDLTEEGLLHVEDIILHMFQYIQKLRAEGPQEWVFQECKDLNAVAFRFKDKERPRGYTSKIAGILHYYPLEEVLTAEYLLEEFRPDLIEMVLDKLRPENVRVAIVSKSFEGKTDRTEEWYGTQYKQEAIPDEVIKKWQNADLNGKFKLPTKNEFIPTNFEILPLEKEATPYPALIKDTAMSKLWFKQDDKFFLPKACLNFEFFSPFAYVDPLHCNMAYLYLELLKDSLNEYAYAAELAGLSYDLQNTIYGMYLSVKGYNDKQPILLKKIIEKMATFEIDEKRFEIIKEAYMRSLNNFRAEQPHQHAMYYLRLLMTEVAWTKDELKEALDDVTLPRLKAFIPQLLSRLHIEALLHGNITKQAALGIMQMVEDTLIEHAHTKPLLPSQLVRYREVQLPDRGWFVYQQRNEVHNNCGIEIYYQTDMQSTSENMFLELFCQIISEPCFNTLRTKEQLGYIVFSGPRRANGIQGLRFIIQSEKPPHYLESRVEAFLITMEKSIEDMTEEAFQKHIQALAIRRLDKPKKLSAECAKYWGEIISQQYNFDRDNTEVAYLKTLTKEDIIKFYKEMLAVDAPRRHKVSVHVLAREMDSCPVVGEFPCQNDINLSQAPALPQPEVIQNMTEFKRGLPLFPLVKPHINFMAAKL
UniProt O14732: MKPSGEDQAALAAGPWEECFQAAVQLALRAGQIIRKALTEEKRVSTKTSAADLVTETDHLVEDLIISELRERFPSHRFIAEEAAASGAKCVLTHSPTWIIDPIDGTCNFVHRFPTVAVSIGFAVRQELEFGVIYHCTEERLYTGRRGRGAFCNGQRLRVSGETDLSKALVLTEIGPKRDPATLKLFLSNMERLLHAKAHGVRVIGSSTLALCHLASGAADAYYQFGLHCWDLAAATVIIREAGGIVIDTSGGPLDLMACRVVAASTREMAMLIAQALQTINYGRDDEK
UniProt O75449: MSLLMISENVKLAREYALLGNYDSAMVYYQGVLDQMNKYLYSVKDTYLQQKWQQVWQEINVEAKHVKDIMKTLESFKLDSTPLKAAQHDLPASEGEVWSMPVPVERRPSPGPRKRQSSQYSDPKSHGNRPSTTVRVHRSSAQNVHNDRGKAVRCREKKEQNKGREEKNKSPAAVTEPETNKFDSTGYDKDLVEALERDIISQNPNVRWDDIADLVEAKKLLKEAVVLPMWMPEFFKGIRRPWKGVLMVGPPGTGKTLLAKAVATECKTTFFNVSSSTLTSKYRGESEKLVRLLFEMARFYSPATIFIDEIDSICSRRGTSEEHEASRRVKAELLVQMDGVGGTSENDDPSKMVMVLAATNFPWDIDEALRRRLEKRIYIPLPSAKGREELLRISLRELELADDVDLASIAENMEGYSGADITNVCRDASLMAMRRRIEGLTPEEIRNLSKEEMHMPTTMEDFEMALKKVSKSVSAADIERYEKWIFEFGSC

What follows are targets tested with COc1ccc(Cn2ccc3cc(C)c(C(=O)NO)cc32)cc1 (assay: dose-dependent thermal stabilisation call (2D-TPP, DLPTP, 10% FDR) (binary (1 = stabilised)); higher = stabilised by the compound). Conditions: system: HL-60 intact cells; concentration range 0.04-10 µM.
Method: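 2D thermal proteome profiling in intact HL-60 cells treated with BRD-3811 (0, 0.04, 0.29, 2, 10 uM) for 90 min at 37 C, then heated 3 min at one of 12 temperatures (42-63.9 C). Soluble protein was quantified by TMT10 MS. The value is the DLPTP call of the paper: dose-dependent thermal stabilisation over all temperatures at 10% FDR (F-test of a dose-response against a flat model); one experiment, one call per tested protein.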

| Target | dose-dependent thermal stabilisation call |
| --- | --- |
| ILF3 (UniProt Q12906) | inactive: 0 |
| KIAA0841 (UniProt O94927) | inactive: 0 |
| INPP5A (UniProt Q14642) | inactive: 0 |
| JMJD1B (UniProt Q7LBC6) | inactive: 0 |
| KCTD3 (UniProt Q9Y597) | inactive: 0 |
| KIF1B (UniProt O60333) | inactive: 0 |
| INPP5D (UniProt Q92835) | inactive: 0 |
| JMJD5 (UniProt Q8N371) | inactive: 0 |
| IFT74 (UniProt Q96LB3) | inactive: 0 |
| JARID1C (UniProt P41229) | inactive: 0 |
| INSR (UniProt P06213) | inactive: 0 |
| KIAA1033 (UniProt Q2M389) | inactive: 0 |
| IDH2 (UniProt P48735) | inactive: 0 |
| IFNAR1 (UniProt P17181) | inactive: 0 |
| IRAK1 (UniProt P51617) | inactive: 0 |
| KPNA3 (UniProt O00505) | inactive: 0 |
| ICAM2 (UniProt P13598) | inactive: 0 |
| KIF21B (UniProt O75037) | inactive: 0 |
| KIF20B (UniProt Q96Q89) | inactive: 0 |
| IPO5 (UniProt O00410) | inactive: 0 |

Taken from above:
JMJD1B (UniProt Q7LBC6) | dose-dependent thermal stabilisation call: inactive: 0
IDH2 (UniProt P48735) | dose-dependent thermal stabilisation call: inactive: 0
KIAA0841 (UniProt O94927) | dose-dependent thermal stabilisation call: inactive: 0

The listing continues:

| Target | dose-dependent thermal stabilisation call |
| --- | --- |
| KIAA0776 (UniProt O94874) | inactive: 0 |
| IDI1 (UniProt Q13907) | inactive: 0 |
| KIAA1468 (UniProt Q9P260) | inactive: 0 |
| IL18 (UniProt Q14116) | inactive: 0 |
| KCNQ5 (UniProt Q9NR82) | inactive: 0 |
| KIAA1310 (UniProt Q9P2N6) | inactive: 0 |
| KLHDC5 (UniProt Q9P2K6) | inactive: 0 |
| INTS6 (UniProt Q9UL03) | inactive: 0 |
| KIAA0174 (UniProt P53990) | inactive: 0 |
| INPP1 (UniProt P49441) | inactive: 0 |
| HTATSF1 (UniProt O43719) | inactive: 0 |
| KIAA1618 (UniProt Q63HN8) | inactive: 0 |
| KIAA1598 (UniProt A0MZ66) | inactive: 0 |
| KATNB1 (UniProt Q9BVA0) | inactive: 0 |
| IKBKG (UniProt Q9Y6K9) | inactive: 0 |
| IDE (UniProt P14735) | inactive: 0 |
| IDS (UniProt P22304) | inactive: 0 |
| IRF2BP2 (UniProt Q7Z5L9) | inactive: 0 |
| IMPA2 (UniProt O14732) | inactive: 0 |
| KATNA1 (UniProt O75449) | inactive: 0 |
